Measured values taken from PMC10987163.
These are yes or no findings as the source states them, for the method shown. In cells and extracts the contact can be indirect. Some binding calls cover weakened binding; strength is not graded here.

By UniProt entry, the sequences of proteins in these tests, tags left out.
UniProt P48754: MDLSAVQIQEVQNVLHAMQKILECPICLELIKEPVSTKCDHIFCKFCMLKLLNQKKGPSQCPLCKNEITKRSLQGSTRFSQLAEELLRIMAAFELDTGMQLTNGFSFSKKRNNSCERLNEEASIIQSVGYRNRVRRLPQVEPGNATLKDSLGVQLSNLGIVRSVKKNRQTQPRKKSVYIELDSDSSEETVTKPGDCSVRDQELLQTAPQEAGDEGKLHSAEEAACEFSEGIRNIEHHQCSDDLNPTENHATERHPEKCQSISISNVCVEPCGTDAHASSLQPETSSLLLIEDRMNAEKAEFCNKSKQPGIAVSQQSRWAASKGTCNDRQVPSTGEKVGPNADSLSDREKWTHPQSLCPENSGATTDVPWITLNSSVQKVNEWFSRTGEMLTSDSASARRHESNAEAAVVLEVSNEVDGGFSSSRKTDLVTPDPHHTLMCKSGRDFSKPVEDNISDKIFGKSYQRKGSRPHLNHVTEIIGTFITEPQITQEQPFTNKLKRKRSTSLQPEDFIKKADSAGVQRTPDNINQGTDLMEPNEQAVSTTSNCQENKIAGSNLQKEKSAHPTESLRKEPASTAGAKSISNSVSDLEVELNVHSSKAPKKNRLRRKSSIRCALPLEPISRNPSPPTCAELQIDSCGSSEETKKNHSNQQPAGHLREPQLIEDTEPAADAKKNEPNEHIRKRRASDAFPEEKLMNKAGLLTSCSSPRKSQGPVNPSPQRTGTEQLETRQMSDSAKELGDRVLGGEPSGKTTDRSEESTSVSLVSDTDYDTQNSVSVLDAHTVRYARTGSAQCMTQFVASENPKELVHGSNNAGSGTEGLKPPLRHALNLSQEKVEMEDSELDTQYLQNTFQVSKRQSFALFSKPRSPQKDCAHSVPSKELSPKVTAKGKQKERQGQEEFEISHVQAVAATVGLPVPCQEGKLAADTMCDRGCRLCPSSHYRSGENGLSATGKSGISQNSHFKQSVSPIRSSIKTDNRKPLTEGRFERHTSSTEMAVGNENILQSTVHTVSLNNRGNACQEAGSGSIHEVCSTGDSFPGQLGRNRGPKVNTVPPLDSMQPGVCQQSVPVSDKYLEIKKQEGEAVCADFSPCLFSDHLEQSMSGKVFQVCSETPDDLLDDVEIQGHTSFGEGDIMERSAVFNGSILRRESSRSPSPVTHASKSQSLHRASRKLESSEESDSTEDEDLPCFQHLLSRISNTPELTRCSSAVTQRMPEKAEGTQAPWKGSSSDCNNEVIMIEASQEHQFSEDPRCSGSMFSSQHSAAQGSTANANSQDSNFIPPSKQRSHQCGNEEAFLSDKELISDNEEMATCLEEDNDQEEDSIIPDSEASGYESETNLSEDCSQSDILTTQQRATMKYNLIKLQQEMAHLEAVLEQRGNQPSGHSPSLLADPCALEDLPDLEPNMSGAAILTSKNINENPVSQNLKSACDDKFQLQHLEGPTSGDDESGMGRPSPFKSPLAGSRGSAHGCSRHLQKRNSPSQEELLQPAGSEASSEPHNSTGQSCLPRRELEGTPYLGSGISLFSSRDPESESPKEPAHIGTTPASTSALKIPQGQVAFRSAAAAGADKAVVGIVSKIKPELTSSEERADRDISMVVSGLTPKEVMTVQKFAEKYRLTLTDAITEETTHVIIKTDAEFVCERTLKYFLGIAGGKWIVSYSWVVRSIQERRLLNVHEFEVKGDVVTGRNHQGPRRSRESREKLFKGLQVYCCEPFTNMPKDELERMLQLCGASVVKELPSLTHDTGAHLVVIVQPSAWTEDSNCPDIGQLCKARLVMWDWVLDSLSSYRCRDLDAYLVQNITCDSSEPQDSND

Target: murine γ‐H2ax (mouse (endogenous in placental tissue)) (UniProt P27661)
Assay: co-IP; endogenous proteins in placental tissues of BaP‐exposed mice (and AS‐Ahr‐treated mice); limited (or excessive) and identical amount of γ‐H2ax antibody, Western blot, IgG as negative control

Substance: murine Brca1 (from UniProt P48754 1-1812)
- binding: binds
